Sequences of proteins named here, by UniProt entry; tags and fusion partners are left off.
UniProt Q62952: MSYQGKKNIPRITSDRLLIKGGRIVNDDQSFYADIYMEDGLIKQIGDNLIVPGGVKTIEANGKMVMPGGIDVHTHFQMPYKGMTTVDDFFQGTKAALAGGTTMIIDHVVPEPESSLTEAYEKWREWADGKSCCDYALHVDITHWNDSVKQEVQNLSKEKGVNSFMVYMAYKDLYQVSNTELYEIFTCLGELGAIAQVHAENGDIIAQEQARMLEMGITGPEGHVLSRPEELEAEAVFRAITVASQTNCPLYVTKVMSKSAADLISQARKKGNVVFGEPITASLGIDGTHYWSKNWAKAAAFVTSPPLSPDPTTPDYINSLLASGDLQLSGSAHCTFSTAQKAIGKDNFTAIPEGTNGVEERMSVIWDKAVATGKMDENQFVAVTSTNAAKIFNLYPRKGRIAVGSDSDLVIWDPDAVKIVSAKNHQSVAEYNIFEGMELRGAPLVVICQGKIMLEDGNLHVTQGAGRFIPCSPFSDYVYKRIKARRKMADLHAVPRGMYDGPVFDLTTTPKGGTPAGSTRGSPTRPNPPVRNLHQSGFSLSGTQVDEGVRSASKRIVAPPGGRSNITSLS
UniProt Q62951: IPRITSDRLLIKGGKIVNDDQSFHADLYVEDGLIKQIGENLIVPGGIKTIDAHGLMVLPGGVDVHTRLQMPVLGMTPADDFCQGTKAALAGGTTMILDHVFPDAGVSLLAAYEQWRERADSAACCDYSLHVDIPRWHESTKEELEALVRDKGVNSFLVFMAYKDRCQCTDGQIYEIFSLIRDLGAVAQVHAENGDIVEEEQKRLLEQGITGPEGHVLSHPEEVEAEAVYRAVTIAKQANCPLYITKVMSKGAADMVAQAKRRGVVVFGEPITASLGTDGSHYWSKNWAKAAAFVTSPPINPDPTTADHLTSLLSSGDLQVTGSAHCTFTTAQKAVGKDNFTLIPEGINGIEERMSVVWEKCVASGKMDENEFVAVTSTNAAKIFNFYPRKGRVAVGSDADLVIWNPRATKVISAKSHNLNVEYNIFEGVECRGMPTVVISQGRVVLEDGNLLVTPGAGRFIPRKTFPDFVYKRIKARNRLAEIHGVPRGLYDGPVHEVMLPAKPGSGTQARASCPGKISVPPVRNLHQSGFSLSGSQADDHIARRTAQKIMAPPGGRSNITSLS
UniProt Q62950: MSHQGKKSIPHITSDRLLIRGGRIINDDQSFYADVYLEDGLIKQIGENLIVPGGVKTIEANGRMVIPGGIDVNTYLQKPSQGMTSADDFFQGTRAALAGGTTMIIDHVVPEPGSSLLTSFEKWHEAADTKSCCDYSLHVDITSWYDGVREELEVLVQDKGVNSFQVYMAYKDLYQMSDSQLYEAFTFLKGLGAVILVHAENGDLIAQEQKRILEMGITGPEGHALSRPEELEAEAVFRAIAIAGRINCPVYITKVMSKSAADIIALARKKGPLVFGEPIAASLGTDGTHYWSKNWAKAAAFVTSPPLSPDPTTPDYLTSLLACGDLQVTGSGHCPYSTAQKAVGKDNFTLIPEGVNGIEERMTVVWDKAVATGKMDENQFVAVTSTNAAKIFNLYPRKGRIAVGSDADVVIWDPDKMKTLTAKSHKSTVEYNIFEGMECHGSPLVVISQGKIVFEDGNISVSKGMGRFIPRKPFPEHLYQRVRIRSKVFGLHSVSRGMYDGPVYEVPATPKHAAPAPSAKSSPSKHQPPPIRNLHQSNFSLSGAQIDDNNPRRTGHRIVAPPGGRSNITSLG

In paper PMC12647243:

Molecular target: Trio (rat (endogenous in rat brain growth cone fraction and primary cortical neurons)) (UniProt F1M0Z1)
Assay: affinity purification with mass spectrometry; endogenous Trio immunoprecipitated (Trio antibody, Protein A-agarose, 4 °C) from rat growth cone fractions of embryonic day 21 and postnatal day 2, solubilised in 1% Triton X-100 lysis buffer (50 mM Tris-HCl pH 7.4, 150 mM NaCl, 1 mM EDTA); gel bands digested, LC-MS/MS; N = 3 litters

Molecule | binding
Collapsin Response Mediator Protein 4 (CRMP4) (from UniProt Q62952 1-570) | binds
Collapsin Response Mediator Protein 3 (CRMP3) (from UniProt Q62951 1-564) | binds

Next, values leading:

binding | Molecule
binds | Collapsin Response Mediator Protein 1 (CRMP1) (from UniProt Q62950 1-572)
binds | Collapsin Response Mediator Protein 5 (CRMP5) (protein, UniProt Q9JHU0 1-564) MLANSASVRILIKGGKVVNDDCTHEADVYIENGIIQQVGRELMIPGGAKVIDATGKLVIPGGIDTSTHFHQTFMNATCVDDFYHGTKAALVGGTTMIIGHVLPDKETSLVEAYEKCRALADPKVCCDYALHVGITWWAPKVKAEMETLVREKGVNSFQMFMTYKDLYMLRDSELYQVFHACRDFGAIPRVHAENGELVAEGAKEALDLGITGPEGIEISHPEELEAEATHRVITIANRTHCPIYLVNVSSISAGDVIAAAKMQGKVVLAETTNAHATLTGLHYYHQDWSHAAAYVTVPPLRLDTNTSTYLMSLLANDTLNIVASDHRPFTTKQKAMGKEDFTKIPHGVSGVQDRMSVVWERGVVGGKMDENRFVAVTSSNAAKILNLYPRKGRIIPGADADVVVWDPEATKTISASTQVQGGDFNLYENMRCHGVPLVTISRGRVVYENGVFMCAEGTGKFCPLRSFPDIVYKKLVQREKTLKVRGVDRTPYLGDVAVVVNPGKKEMGTPLADTPTRPVTRHGGMRDLHESSFSLSGSQIDDHVPKRASARILAPPGGRSSGIW

These are yes or no findings as the source states them, for the method shown. In cells and extracts the contact can be indirect. A yes stands for co-enrichment or nearness to the bait. Other partners may have been found.
